Experimental data from the supplement of paper PMC10849652.
Some of the results follow.

By UniProt entry, the sequences of proteins in these tests, tags left out. Where a name states a change or a piece, a line headed by the entry shows the natural chain unless it says otherwise.
UniProt Q8NI60: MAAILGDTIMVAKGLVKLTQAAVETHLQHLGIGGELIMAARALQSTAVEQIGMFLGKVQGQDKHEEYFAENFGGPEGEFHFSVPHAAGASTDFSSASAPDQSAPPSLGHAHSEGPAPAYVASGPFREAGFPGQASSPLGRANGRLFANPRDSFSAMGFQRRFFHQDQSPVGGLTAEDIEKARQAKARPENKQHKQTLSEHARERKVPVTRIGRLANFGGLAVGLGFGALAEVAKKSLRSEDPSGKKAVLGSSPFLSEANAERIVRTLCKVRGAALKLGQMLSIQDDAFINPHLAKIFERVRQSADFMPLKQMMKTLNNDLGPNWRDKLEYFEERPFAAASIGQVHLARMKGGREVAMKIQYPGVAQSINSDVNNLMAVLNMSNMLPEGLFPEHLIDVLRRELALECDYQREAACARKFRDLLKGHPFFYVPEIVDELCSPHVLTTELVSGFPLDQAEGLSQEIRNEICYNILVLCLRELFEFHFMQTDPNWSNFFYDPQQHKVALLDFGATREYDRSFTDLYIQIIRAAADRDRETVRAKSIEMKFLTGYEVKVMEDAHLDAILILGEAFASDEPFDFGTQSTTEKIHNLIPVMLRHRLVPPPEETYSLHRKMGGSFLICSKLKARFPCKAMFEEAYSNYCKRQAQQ
UniProt Q7L5N1: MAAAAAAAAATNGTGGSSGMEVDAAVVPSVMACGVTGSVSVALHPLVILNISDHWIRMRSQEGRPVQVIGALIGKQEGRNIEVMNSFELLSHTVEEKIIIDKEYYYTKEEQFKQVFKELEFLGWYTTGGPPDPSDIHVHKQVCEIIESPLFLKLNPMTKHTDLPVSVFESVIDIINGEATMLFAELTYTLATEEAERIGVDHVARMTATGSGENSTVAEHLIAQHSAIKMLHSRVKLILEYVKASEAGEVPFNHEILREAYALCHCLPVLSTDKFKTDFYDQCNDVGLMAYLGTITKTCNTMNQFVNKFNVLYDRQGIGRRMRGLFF
UniProt O14548: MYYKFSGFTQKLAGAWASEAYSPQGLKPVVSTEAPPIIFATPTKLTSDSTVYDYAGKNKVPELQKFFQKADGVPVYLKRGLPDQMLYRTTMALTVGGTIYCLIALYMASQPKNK
UniProt Q86X83, whole entry, looked up: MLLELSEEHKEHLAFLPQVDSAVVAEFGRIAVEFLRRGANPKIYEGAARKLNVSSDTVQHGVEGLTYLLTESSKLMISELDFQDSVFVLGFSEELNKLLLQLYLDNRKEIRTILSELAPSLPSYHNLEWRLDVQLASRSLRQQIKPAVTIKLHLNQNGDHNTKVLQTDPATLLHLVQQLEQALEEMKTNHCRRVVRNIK
UniProt P14406, whole entry, looked up: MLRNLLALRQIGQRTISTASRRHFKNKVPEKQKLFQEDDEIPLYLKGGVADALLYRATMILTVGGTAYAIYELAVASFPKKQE
UniProt Q8N668, whole entry, looked up: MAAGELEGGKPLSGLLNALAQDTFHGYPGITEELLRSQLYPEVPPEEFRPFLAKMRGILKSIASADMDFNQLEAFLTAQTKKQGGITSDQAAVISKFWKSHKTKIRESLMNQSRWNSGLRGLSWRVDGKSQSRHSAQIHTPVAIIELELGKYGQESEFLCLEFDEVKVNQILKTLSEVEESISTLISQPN
UniProt Q53ET0: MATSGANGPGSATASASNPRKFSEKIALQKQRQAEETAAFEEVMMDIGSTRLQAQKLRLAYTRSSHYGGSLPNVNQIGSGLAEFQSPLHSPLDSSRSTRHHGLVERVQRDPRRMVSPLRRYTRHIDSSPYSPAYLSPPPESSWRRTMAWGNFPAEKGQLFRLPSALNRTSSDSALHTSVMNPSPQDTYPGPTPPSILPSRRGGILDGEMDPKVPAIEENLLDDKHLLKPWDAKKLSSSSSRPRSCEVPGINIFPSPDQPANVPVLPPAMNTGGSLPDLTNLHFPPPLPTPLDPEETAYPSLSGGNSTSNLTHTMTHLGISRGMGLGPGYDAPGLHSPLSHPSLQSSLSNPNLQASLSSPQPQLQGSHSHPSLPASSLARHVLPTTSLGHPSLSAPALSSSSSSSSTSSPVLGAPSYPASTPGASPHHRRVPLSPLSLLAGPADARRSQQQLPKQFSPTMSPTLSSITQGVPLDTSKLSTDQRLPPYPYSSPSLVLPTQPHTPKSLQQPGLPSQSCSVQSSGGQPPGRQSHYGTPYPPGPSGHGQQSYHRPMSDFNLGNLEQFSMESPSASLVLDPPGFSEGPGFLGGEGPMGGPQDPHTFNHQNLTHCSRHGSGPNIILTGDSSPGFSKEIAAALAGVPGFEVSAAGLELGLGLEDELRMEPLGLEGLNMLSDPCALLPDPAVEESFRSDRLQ
UniProt Q9P000, whole entry, looked up: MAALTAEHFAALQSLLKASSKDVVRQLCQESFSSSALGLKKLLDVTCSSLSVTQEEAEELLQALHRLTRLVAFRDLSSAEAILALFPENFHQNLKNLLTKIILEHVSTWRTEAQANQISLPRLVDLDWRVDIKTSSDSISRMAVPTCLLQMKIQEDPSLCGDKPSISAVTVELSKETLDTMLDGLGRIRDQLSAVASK
UniProt O75629: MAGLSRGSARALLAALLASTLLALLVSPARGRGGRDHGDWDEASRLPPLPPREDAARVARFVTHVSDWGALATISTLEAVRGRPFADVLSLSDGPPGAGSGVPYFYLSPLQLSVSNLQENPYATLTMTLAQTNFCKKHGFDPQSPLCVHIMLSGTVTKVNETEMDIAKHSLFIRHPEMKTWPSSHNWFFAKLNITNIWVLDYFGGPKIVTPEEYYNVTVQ
UniProt O14579: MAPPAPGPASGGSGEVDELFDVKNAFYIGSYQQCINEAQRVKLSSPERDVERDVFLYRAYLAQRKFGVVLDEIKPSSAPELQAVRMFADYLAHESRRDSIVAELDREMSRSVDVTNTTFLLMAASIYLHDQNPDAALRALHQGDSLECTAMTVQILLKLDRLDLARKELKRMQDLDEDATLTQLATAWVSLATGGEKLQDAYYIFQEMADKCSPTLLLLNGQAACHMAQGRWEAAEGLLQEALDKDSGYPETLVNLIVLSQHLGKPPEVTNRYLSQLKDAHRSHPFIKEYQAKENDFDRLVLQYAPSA
UniProt Q6UXH1: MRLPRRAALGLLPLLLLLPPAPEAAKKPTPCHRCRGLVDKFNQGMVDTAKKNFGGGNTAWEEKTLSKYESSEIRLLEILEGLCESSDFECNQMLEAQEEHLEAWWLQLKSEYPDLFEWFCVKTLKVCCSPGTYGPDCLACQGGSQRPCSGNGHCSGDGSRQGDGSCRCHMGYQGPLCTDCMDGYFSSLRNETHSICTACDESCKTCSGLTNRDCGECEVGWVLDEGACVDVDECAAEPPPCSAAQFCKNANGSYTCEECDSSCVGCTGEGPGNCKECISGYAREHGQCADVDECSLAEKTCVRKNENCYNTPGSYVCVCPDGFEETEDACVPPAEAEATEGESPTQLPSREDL
UniProt Q9BR76, whole entry, looked up: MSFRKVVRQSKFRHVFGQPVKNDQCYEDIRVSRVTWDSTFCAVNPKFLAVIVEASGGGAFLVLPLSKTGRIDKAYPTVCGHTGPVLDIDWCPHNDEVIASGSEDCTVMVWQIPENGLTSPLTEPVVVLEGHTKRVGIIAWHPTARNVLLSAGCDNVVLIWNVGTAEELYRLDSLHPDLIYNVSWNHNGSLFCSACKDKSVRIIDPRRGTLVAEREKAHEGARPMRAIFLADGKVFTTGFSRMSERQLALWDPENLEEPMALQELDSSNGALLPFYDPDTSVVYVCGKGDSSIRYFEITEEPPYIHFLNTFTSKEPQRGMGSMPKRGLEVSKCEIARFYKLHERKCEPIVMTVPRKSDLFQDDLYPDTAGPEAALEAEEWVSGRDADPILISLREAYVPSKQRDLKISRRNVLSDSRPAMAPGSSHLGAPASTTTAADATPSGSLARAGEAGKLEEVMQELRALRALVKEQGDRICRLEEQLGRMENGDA
UniProt P36551: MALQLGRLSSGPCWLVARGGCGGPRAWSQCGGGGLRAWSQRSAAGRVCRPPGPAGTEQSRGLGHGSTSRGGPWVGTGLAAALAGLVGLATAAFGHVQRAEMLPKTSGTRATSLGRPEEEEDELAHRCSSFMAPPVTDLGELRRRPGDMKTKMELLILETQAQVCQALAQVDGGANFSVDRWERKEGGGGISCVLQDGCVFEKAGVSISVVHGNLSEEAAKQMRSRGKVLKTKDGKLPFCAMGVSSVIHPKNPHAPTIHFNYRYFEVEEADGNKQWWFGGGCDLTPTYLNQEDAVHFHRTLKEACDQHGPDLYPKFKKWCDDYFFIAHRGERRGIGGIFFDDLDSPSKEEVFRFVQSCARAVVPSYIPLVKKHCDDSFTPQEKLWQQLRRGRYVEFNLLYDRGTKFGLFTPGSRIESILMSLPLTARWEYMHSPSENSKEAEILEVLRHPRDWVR
UniProt P46109: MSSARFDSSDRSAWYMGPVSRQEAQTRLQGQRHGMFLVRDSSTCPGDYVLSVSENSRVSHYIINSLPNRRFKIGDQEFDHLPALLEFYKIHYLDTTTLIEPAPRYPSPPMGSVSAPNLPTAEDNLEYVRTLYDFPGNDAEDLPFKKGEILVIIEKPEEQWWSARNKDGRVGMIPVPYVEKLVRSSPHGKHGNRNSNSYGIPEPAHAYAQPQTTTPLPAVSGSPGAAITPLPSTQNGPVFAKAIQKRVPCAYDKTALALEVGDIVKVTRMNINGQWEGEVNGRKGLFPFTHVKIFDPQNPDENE
UniProt Q14019: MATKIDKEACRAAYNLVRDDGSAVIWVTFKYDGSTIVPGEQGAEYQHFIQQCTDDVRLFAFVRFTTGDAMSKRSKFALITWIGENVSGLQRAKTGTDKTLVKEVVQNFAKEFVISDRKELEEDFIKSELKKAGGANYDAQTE
UniProt P21964: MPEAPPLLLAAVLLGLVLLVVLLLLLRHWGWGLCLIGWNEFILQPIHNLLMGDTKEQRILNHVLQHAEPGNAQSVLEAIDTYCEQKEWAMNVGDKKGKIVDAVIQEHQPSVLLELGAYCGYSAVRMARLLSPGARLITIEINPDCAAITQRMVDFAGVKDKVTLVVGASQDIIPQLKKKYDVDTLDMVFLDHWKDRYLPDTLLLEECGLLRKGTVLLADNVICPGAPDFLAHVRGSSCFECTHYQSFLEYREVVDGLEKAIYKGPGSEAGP
UniProt Q8IYK4: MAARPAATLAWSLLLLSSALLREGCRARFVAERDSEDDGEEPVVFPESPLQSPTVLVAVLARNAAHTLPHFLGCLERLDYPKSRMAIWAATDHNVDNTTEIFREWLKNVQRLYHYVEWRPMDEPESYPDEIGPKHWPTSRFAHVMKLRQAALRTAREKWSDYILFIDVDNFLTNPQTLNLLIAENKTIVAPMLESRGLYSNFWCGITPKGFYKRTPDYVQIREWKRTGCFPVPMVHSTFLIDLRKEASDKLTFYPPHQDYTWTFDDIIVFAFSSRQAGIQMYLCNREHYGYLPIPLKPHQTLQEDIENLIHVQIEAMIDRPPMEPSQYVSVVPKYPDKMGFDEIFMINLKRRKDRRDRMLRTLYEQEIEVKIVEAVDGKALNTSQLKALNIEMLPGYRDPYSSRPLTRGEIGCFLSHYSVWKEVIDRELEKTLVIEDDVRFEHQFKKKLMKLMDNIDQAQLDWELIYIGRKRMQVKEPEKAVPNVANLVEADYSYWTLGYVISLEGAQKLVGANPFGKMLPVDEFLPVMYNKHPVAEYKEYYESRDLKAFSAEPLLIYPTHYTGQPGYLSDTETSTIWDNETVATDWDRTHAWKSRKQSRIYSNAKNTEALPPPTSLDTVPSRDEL
UniProt P46108: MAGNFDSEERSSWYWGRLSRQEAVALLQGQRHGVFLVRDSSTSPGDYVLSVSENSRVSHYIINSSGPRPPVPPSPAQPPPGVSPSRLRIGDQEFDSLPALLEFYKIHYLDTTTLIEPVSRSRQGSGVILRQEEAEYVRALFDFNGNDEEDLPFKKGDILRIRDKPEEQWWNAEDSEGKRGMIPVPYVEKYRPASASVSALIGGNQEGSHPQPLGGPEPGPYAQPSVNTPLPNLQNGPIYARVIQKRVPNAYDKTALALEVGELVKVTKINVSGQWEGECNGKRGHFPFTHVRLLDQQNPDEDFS
UniProt Q49B96: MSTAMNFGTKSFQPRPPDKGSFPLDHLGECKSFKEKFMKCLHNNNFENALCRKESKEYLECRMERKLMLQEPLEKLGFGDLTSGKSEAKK
UniProt Q96FN4: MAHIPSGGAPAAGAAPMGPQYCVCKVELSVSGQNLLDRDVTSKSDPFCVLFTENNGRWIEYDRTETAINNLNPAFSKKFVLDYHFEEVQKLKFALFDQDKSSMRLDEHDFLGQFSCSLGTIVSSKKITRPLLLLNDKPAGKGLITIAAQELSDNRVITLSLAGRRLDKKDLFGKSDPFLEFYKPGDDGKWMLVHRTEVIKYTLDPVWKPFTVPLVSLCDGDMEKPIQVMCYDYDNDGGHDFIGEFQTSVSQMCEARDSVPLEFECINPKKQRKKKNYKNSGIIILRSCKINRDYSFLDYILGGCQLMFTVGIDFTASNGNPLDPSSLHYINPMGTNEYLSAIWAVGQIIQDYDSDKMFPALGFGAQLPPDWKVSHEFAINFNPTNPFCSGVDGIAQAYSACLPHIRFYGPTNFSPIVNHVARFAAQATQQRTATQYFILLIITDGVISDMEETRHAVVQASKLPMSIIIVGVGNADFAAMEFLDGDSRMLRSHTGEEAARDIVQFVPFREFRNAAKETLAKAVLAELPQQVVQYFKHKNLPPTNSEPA

What was measured:
Assay in all cases: log2 fold change, soluble protein after heating vs DMSO (PISA); higher = thermal stabilisation; K562 cells, 10 uM, 30 min; active = over 0.2 and 3.5 SD of the protein, either way, in both replicates (recomputed)
[1] = compound: CC1=C(C=C(C=C1)NC(=O)C2=CC(=CC=C2)C(C)(C)C#N)NC3=CC4=C(C=C3)N=CN(C4=O)C
In short: (§1)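 Quantification of soluble protein used TMTpro 16plex LC-MS/MS, with channel sums equalised. Samples were the supernatant after 21,000xg for 90 min of pooled aliquots from K562 cells (2×10^6 cells/mL) treated with 10 μM compound for 30 min, heated for 3 min over 48°C-58°C, and extracted in PBS with 0.5% NP-40 at 4°C. Values, from duplicates, describe thermal stability against control samples on a log2 fold-change scale.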

[2] = compound: CC1=C(C=C(C=C1)NC(=O)C2=CC(=CC=C2)N(C)C)NC(=O)C3=CC=C(C=C3)O
In short: as §1

[3] = compound: CC1=CC=C(C=C1)SC2=C3C=C(SC3=CN=C2)C(=O)N
In short: as §1

[4] = compound: CC1=NC(=CC=C1)C2=C(N=C(N2)C(C)(C)C)C3=CC4=NC=CN=C4C=C3
In short: as §1

[5] = compound: CCCCN(Cc1ccc(C(=O)NO)cc1)C(=O)Nc1ccccc1 [Nexturastat A]
In short: as §1

[6] = compound: CCCS(=O)(=O)Nc1ccc(F)c(C(=O)c2c[nH]c3ncc(-c4ccc(Cl)cc4)cc23)c1F [vemurafenib]
In short: as §1

[7] = compound: CCCS(=O)(=O)Nc1ccc(F)c(C(=O)c2c[nH]c3ncc(Cl)cc23)c1F
In short: as §1

[8] = compound: CCCc1cc(C)[nH]c(=O)c1CNC(=O)c1cc(-c2ccnc(N3CCN(C)CC3)c2)cc2c1cnn2C(C)C
In short: as §1

[9] = compound: CCN(CC)Cc1ccc2cc(COC(=O)Nc3ccc(C(=O)NO)cc3)ccc2c1 [givinostat]
In short: as §1

[10] = compound: CCN(CCCOc1ccc2c(Nc3cc(CC(=O)Nc4cccc(F)c4)[nH]n3)ncnc2c1)CCOP(=O)(O)O [barasertib]
In short: as §1

Measured: log2 fold change

COPB2 (UniProt P35606)
inactive: [1] -0.007 | [2] -0.013 | [3] -0.009 | [4] 0.014 | [5] -0.012 | [6] 0.004 | [7] 0.04 | [8] -0.001 | [9] -0.016 | [10] 0.022

COQ8A (UniProt Q8NI60)
inactive: [1] 0.044 | [2] -0.053 | [3] 0.001 | [4] 0.034 | [5] -0.024 | [6] 0.028 | [7] 0.047 | [8] -0.085 | [9] -0.049 | [10] 0.02

COPS6 (UniProt Q7L5N1)
inactive: [1] 0.051 | [2] -0.01 | [3] -0.012 | [4] 0.087 | [5] -0.078 | [6] 0.013 | [7] -0.005 | [8] -0.012 | [9] -0.119 | [10] -0.021

COX7A2L (UniProt O14548)
inactive: [1] -0.035 | [2] -0.049 | [3] 0.024 | [4] 0.005 | [5] 0.009 | [6] -0.078 | [7] -0.044 | [8] -0.041 | [9] -0.018 | [10] 0.042

COPS7B (UniProt Q9H9Q2)
inactive: [1] -0.006 | [2] -0.037 | [3] 0.018 | [4] 0.042 | [5] 0.068 | [6] 0.021 | [7] 0.032 | [8] 0.003 | [9] -0.023 | [10] 0.041

COMMD2 (UniProt Q86X83)
inactive: [1] -0.014 | [2] -0.051 | [3] 0.007 | [4] 0.035 | [5] 0.022 | [6] 0.023 | [7] 0.159 | [8] 0.019 | [9] 0.11 | [10] 0.053

COX7A2 (UniProt P14406)
inactive: [1] -0.039 | [2] -0.052 | [3] 0.004 | [4] 0.006 | [5] -0.252 | [6] -0.09 | [7] -0.039 | [8] -0.053 | [9] 0.018 | [10] 0.04

COMMD1 (UniProt Q8N668)
inactive: [1] 0.037 | [2] -0.064 | [3] -0.048 | [4] 0.056 | [5] 0.011 | [6] -0.038 | [7] 0.097 | [8] 0.056 | [9] 0.122 | [10] 0.057

CRTC2 (UniProt Q53ET0)
inactive: [1] 0.055 | [2] 0.055 | [3] -0.051 | [4] 0.017 | [5] -0.03 | [6] 0.039 | [7] 0.031 | [8] 0.103 | [9] 0.181 | [10] 0.062

COMMD9 (UniProt Q9P000)
inactive: [1] -0.013 | [2] -0.082 | [3] -0.044 | [4] 0.13 | [5] -0.15 | [6] 0.124 | [7] -0.295 | [8] -0.014 | [9] 0.007 | [10] 0.054

CREG1 (UniProt O75629)
inactive: [1] -0.182 | [2] 0.049 | [3] 0.056 | [4] 0.008 | [5] 0.097 | [6] -0.011 | [7] 0.063 | [8] -0.013 | [9] 0 | [10] -0.079

COPE (UniProt O14579)
inactive: [1] 0.016 | [2] 0.013 | [3] 0.027 | [4] 0.023 | [5] 0.044 | [6] 0.052 | [7] 0.061 | [8] -0.045 | [9] 0.012 | [10] 0.034

CRELD2 isoform 5 (UniProt Q6UXH1)
inactive: [1] -0.024 | [2] 0.02 | [3] -0.027 | [4] -0.098 | [5] -0.016 | [6] -0.007 | [7] -0.081 | [8] 0.051 | [9] -0.08 | [10] 0.085

CPT2 (UniProt P23786)
inactive: [1] 0.313 | [2] -0.105 | [3] 0.035 | [4] 0.019 | [5] -0.417 | [6] 0.042 | [7] 0.007 | [8] 0.016 | [9] 0.474 | [10] 0.013

CORO1B (UniProt Q9BR76)
inactive: [1] 0.016 | [2] -0.027 | [3] 0.031 | [4] 0.074 | [5] -0.066 | [6] 0.062 | [7] 0 | [8] 0.048 | [9] -0.019 | [10] 0.011

CPOX (UniProt P36551)
inactive: [1] 0.042 | [2] 0.039 | [3] 0.042 | [4] -0.001 | [5] -0.12 | [6] -0.026 | [7] -0.01 | [8] -0.016 | [9] -0.117 | [10] -0.042

CRIPT (UniProt Q9P021)
inactive: [1] 0.153 | [2] 0.045 | [3] 0.022 | [4] -0.068 | [5] 0.063 | [6] -0.044 | [7] -0.003 | [8] -0.06 | [9] 0.012 | [10] -0.053

CRKL (UniProt P46109)
active: [1] -1.25
inactive: [2] -0.029 | [3] 0.014 | [4] 0.019 | [5] -0.003 | [6] -0.018 | [7] -0.009 | [8] -0.024 | [9] 0.009 | [10] 0.01

CSE1L (UniProt P55060)
inactive: [1] 0.021 | [2] -0.006 | [3] 0.068 | [4] 0.083 | [5] -0.068 | [6] 0.029 | [7] 0.063 | [8] 0.009 | [9] 0.004 | [10] 0.042

CSDE1 isoform 4 (UniProt O75534)
inactive: [1] -0.022 | [2] -0.025 | [3] 0.019 | [4] -0.054 | [5] 0.202 | [6] 0.043 | [7] 0.058 | [8] 0.155 | [9] 0.123 | [10] 0.066

COTL1 (UniProt Q14019)
inactive: [1] 0.031 | [2] 0.005 | [3] 0.038 | [4] 0.05 | [5] -0.043 | [6] 0.033 | [7] 0.057 | [8] -0.05 | [9] -0.006 | [10] 0.024

COPS5 (UniProt Q92905)
inactive: [1] 0.029 | [2] 0.003 | [3] 0.028 | [4] 0.034 | [5] -0.117 | [6] 0.049 | [7] 0.098 | [8] -0.041 | [9] -0.003 | [10] 0.011

COMMD10 (UniProt Q9Y6G5)
inactive: [1] 0.029 | [2] 0 | [3] -0.01 | [4] -0.01 | [5] -0.037 | [6] 0.117 | [7] 0.118 | [8] 0.015 | [9] -0.014 | [10] -0.005

COMT (UniProt P21964)
inactive: [1] 0.14 | [2] 0.009 | [3] -0.012 | [4] 0.019 | [5] 0.036 | [6] 0.011 | [7] 0.002 | [8] 0.005 | [9] 0.144 | [10] -0.006

Copied from the results shown (8 entries):
CORO1B (UniProt Q9BR76)
inactive: [1] 0.016 | [2] -0.027 | [3] 0.031 | [4] 0.074 | [5] -0.066 | [6] 0.062 | [7] 0 | [8] 0.048 | [9] -0.019 | [10] 0.011

CPOX (UniProt P36551)
inactive: [1] 0.042 | [2] 0.039 | [3] 0.042 | [4] -0.001 | [5] -0.12 | [6] -0.026 | [7] -0.01 | [8] -0.016 | [9] -0.117 | [10] -0.042

CRIPT (UniProt Q9P021)
inactive: [1] 0.153 | [2] 0.045 | [3] 0.022 | [4] -0.068 | [5] 0.063 | [6] -0.044 | [7] -0.003 | [8] -0.06 | [9] 0.012 | [10] -0.053

CRKL (UniProt P46109)
active: [1] -1.25
inactive: [2] -0.029 | [3] 0.014 | [4] 0.019 | [5] -0.003 | [6] -0.018 | [7] -0.009 | [8] -0.024 | [9] 0.009 | [10] 0.01

CSE1L (UniProt P55060)
inactive: [1] 0.021 | [2] -0.006 | [3] 0.068 | [4] 0.083 | [5] -0.068 | [6] 0.029 | [7] 0.063 | [8] 0.009 | [9] 0.004 | [10] 0.042

CSDE1 isoform 4 (UniProt O75534)
inactive: [1] -0.022 | [2] -0.025 | [3] 0.019 | [4] -0.054 | [5] 0.202 | [6] 0.043 | [7] 0.058 | [8] 0.155 | [9] 0.123 | [10] 0.066

COTL1 (UniProt Q14019)
inactive: [1] 0.031 | [2] 0.005 | [3] 0.038 | [4] 0.05 | [5] -0.043 | [6] 0.033 | [7] 0.057 | [8] -0.05 | [9] -0.006 | [10] 0.024

COPS5 (UniProt Q92905)
inactive: [1] 0.029 | [2] 0.003 | [3] 0.028 | [4] 0.034 | [5] -0.117 | [6] 0.049 | [7] 0.098 | [8] -0.041 | [9] -0.003 | [10] 0.011

(next part)

COLGALT2 (UniProt Q8IYK4)
inactive: [1] 0.019 | [2] -0.003 | [3] -0.031 | [4] -0.096 | [5] 0.1 | [6] -0.036 | [7] -0.072 | [8] 0.052 | [9] -0.029 | [10] -0.003

CRK (UniProt P46108)
active: [1] -0.814
inactive: [2] -0.019 | [3] 0.015 | [4] 0.091 | [5] -0.006 | [6] 0.048 | [7] 0.009 | [8] -0.008 | [9] 0.002 | [10] 0.046

COX19 (UniProt Q49B96)
inactive: [1] -0.046 | [2] 0.004 | [3] 0.008 | [4] -0.039 | [5] -0.016 | [6] 0.025 | [7] -0.026 | [8] -0.063 | [9] -0.007 | [10] 0.006

COPA isoform 2 (UniProt P53621)
inactive: [1] -0.004 | [2] -0.03 | [3] 0.007 | [4] 0.004 | [5] -0.03 | [6] 0.014 | [7] 0.047 | [8] 0.013 | [9] -0.029 | [10] 0.01

COPS4 (UniProt Q9BT78)
inactive: [1] -0.001 | [2] -0.019 | [3] 0.019 | [4] 0.033 | [5] -0.062 | [6] 0.049 | [7] 0.071 | [8] -0.037 | [9] -0.025 | [10] -0.002

CPNE2 (UniProt Q96FN4)
inactive: [1] -0.046 | [2] 0.038 | [3] 0.05 | [4] 0.058 | [5] 0.059 | [6] 0.066 | [7] 0.053 | [8] -0.064 | [9] -0.11 | [10] -0.022
